In paper PMC3236217:
No constants are given. Whether binding was seen depends on the method and setting. Binding seen in cells or lysates may run through a third protein. Binding can be weak; no strength is given.

Chains of the proteins cited; added tags and fusions are not shown. Lines headed by an entry give the natural chain unless they say otherwise; changes in a name come on top.
UniProt P17870: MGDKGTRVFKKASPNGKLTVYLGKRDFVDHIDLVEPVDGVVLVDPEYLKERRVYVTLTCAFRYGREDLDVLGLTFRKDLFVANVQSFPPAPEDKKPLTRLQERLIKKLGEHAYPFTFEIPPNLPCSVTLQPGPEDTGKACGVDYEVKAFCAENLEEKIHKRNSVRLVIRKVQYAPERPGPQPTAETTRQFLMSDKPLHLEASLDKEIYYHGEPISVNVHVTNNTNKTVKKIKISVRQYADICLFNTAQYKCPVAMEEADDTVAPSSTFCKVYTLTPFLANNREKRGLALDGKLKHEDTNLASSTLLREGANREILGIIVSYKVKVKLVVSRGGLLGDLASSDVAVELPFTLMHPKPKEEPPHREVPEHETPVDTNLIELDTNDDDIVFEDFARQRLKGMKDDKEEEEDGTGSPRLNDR

What was measured:
[1] = molecular target: Flag-tagged arrestin-2-Δ7 (UniProt P17870); assay: co-IP; COS-7 cells co-transfected, serum starved, with or without 10 µM isoproterenol (10 min, 37°C) and with or without HA-β2AR over-expression; anti-Flag immunoprecipitation of arrestin, anti-HA blot; lysis buffer with 250 mM NaCl, 0.5% Nonidet P-40
[2] = molecular target: Flag-tagged arrestin-3-Δ7 (UniProt P32120); assay: as above

Substance | binding [1] | binding [2]
MEK1-HA (from UniProt Q02750 1-393) (enzyme) | binds | binds
c-Raf1-HA (from UniProt P04049 1-648) (enzyme) | – | binds
